No constants are given. Whether binding was seen depends on the method and setting. In cells and extracts the contact can be indirect. Some results given as binding are weak or reduced against the parent protein; the word gives no strength.
Target: T1, p100 (human (endogenous in primary CLL cells)) (UniProt Q00653)
T1 sequence: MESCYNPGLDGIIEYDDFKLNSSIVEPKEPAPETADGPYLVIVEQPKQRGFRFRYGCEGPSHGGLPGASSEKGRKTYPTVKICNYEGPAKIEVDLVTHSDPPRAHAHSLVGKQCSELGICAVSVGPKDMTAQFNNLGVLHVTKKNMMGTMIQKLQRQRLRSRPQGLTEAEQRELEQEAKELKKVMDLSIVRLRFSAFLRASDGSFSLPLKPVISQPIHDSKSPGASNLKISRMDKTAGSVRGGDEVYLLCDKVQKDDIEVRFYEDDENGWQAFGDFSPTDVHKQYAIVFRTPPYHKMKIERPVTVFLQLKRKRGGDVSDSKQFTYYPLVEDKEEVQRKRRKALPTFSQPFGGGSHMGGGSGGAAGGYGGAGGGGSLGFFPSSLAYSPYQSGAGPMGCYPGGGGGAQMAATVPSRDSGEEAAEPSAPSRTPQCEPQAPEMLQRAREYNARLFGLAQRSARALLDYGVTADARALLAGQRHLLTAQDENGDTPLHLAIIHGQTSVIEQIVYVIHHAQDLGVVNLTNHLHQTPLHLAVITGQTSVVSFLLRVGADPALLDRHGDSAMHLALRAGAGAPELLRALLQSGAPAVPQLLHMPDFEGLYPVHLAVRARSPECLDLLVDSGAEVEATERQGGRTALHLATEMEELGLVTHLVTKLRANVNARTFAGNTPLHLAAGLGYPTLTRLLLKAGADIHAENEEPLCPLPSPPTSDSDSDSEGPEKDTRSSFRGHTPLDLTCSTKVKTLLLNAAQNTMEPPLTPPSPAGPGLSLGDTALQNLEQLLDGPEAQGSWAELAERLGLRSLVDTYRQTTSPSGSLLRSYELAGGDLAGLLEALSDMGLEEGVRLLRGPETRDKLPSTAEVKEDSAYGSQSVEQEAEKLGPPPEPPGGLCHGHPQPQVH
Experiment: proximity ligation; in situ PLA in fixed, permeabilized primary CLL cells cultured on 3T3 or 3T40 fibroblasts with or without IL-21 or IL-4 (30 min or 24 h; Selinexor in one experiment); rabbit anti-p65, anti-p-p65 or anti-p100/p52 with mouse anti-STAT3 or anti-STAT6; anti-mouse PLUS and anti-rabbit MINUS probes; confocal microscopy

The chains behind the UniProt entries cited, without tags or fusion partners.
UniProt P40763: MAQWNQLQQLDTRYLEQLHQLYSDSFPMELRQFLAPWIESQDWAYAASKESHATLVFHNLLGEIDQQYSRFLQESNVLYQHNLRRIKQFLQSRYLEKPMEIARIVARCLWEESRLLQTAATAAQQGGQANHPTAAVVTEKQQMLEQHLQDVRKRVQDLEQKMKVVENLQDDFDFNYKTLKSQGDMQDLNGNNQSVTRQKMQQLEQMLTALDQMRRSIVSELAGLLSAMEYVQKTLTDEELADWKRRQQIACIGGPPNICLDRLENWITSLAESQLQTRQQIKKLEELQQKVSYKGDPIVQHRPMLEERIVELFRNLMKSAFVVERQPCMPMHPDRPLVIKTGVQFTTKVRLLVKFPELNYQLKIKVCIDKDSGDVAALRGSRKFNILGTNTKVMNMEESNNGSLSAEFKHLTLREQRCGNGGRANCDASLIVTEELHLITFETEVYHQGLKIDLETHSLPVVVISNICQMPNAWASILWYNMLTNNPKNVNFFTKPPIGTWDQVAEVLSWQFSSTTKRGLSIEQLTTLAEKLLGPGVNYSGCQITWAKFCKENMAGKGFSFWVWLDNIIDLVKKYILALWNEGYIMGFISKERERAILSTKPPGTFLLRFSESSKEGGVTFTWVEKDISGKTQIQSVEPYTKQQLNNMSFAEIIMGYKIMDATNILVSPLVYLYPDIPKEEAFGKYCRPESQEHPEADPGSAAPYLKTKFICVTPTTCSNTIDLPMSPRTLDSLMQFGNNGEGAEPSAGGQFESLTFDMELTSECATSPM

With STAT3 (from UniProt P40763 1-770) the binding was “binds”.

Reference: article PMC10257415
